Test results: paper PMC11663349

Amino acid sequences for entries named in this document (tags omitted).
UniProt Q8N6T7: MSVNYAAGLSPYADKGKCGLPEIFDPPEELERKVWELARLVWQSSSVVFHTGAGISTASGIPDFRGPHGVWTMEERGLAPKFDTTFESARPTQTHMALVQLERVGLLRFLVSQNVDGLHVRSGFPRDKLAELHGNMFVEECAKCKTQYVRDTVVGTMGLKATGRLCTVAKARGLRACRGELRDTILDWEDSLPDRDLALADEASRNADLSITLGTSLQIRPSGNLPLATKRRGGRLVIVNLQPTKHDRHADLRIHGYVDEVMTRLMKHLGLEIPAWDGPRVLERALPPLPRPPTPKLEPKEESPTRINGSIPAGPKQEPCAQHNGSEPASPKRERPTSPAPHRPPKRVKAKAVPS
UniProt P0CJ78: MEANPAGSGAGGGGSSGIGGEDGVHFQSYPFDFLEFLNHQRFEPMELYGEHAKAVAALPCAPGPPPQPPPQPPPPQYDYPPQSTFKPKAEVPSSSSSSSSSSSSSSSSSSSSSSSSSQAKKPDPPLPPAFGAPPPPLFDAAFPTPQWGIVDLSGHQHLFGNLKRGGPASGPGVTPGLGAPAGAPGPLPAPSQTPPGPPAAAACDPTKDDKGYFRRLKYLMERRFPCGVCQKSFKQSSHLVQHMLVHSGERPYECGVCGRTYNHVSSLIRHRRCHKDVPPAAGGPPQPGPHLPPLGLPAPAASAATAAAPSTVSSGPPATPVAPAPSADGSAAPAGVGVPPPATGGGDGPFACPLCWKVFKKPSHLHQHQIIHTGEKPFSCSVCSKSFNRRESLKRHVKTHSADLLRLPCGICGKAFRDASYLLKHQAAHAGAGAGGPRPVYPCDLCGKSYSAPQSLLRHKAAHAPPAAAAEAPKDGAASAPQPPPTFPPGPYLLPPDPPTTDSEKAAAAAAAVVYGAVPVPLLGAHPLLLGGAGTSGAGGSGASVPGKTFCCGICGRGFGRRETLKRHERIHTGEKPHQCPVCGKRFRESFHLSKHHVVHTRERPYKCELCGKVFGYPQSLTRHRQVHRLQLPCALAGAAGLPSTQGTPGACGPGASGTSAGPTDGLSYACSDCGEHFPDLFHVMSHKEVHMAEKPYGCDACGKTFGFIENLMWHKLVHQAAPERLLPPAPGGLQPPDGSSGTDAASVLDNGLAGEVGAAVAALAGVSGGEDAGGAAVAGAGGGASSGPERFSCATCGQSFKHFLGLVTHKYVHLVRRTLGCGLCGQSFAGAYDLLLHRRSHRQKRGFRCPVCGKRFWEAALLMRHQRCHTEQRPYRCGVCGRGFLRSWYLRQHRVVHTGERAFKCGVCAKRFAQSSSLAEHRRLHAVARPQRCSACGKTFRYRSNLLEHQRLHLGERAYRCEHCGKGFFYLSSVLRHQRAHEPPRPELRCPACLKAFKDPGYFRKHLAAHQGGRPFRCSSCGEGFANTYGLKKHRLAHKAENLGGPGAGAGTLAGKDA
UniProt P46379: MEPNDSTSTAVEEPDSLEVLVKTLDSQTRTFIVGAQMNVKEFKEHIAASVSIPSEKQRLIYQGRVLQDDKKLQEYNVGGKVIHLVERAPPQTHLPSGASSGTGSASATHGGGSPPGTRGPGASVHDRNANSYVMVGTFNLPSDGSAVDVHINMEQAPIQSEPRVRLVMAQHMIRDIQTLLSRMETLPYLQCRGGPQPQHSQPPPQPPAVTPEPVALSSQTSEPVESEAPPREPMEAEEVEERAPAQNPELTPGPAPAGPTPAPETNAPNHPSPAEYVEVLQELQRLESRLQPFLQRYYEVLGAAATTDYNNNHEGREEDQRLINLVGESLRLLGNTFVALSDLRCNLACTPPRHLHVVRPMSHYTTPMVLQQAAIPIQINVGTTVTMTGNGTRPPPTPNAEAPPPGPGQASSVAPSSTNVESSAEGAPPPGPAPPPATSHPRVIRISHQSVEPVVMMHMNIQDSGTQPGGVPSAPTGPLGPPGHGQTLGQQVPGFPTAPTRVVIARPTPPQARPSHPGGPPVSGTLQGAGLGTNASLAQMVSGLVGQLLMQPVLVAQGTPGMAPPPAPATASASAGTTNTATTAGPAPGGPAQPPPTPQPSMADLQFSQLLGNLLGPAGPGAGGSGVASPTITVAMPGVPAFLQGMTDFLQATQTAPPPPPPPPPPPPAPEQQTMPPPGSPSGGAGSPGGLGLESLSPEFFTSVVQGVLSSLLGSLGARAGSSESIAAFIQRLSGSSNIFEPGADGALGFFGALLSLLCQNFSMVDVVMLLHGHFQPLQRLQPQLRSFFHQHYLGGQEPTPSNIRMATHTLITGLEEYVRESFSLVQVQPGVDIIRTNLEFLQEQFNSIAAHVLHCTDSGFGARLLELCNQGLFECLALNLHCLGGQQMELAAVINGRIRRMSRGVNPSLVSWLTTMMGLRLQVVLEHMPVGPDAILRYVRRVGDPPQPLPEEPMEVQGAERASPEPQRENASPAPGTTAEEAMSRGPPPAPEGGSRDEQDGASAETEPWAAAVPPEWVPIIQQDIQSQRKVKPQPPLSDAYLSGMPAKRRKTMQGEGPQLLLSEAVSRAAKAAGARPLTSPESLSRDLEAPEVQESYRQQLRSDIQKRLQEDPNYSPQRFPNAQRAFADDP

B1: UHRF1 (Ubiquitin-like, containing PHD and RING Finger domains 1) (protein, UniProt Q96T88 1-793)
chain: MWIQVRTMDGRQTHTVDSLSRLTKVEELRRKIQELFHVEPGLQRLFYRGKQMEDGHTLFDYEVRLNDTIQLLVRQSLVLPHSTKERDSELSDTDSGCCLGQSESDKSSTHGEAAAETDSRPADEDMWDETELGLYKVNEYVDARDTNMGAWFEAQVVRVTRKAPSRDEPCSSTSRPALEEDVIYHVKYDDYPENGVVQMNSRDVRARARTIIKWQDLEVGQVVMLNYNPDNPKERGFWYDAEISRKRETRTARELYANVVLGDDSLNDCRIIFVDEVFKIERPGEGSPMVDNPMRRKSGPSCKHCKDDVNRLCRVCACHLCGGRQDPDKQLMCDECDMAFHIYCLDPPLSSVPSEDEWYCPECRNDASEVVLAGERLRESKKKAKMASATSSSQRDWGKGMACVGRTKECTIVPSNHYGPIPGIPVGTMWRFRVQVSESGVHRPHVAGIHGRSNDGAYSLVLAGGYEDDVDHGNFFTYTGSGGRDLSGNKRTAEQSCDQKLTNTNRALALNCFAPINDQEGAEAKDWRSGKPVRVVRNVKGGKNSKYAPAEGNRYDGIYKVVKYWPEKGKSGFLVWRYLLRRDDDEPGPWTKEGKDRIKKLGLTMQYPEGYLEALANREREKENSKREEEEQQEGGFASPRTGKGKWKRKSAGGGPSRAGSPRRTSKKTKVEPYSLTAQQSSLIREDKSNAKLWNEVLASLKDRPASGSPFQLFLSKVEETFQCICCQELVFRPITTVCQHNVCKDCLDRSFRAQVFSCPACRYDLGRSYAMQVNQPLQTVLNQLFPGYGNGR

target: FLAG-HA-SIRT6 (human) (UniProt Q8N6T7); test: affinity purification with mass spectrometry; Tandem Affinity Purification of FLAG-HA-SIRT6 from transfected 293T cells; proteins of the complex identified

binding, binds:
ZNF865 (from UniProt P0CJ78 1-1059)
BAG6 (from UniProt P46379 1-1132)
B1

These are yes or no findings as the source states them, for the method shown. In cells and extracts the contact can be indirect. Here binding means that the protein was enriched with, or labelled near, the bait; the list need not be complete.
